Experimental data reported in the supplement of paper PMC11659162.
Several values for one entry are separate records, joined by “and”; a condition that tells them apart may be missing. Equal entries are not always repeated. Some of the results follow. Single values of this set are uncertain.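 The cells are a human neuroglioma line carrying a green fluorescent autophagy reporter.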

How the values were obtained:
H4 GFP-LC3 [1] = assay: cell viability (scaled to control) (fraction of control); higher = more viable cells; conditions: 5 µM
H4 GFP-LC3 [2] = assay: ACBP immunofluorescence intensity (scaled to control) (AU (scaled)); higher = more intracellular ACBP/DBI; conditions: 5 µM

Row | SMILES | cell viability (H4 GFP-LC3 [1]; 6 h) | cell viability (H4 GFP-LC3 [1]; 24 h) | ACBP immunofluorescence intensity (H4 GFP-LC3 [2]; 6 h) | ACBP immunofluorescence intensity (H4 GFP-LC3 [2]; 24 h)
1 | C/C=C1/C[N+]2(C)CCC34C(=C(C=O)[C@H]1C[C@@H]32)Nc1ccccc14 (some centres undefined) | 0.883 | 1.01 | 0.997 | 0.429
2 | CC(C)NCC(O)c1ccc(N)c(C#N)c1 (centres undefined) | 0.955 | 0.795 | 0.829 | 0.375
3 | COC(=O)/C=C/C(=O)N[C@@H]1CC[C@@]2(O)[C@H]3Cc4ccc(O)c5c4[C@@]2(CCN3CC2CC2)[C@H]1O5 | 0.971 | 1.05 | 0.828 | 0.579
4 | COc1cccc(C2(O)CCCCC2CN(C)C)c1 (centres undefined) | 1.08 | 1.01 | 0.865 | 0.639
5 | NCC(CP(=O)(O)O)c1ccc(Cl)cc1 (centres undefined) | 0.933 | 1.02 | 0.975 | 0.894
6 | c1ccc(CCCN2CCN(CCOC(c3ccccc3)c3ccccc3)CC2)cc1 | 0.874 | 1.12 | 0.781 | 0.543
7 | CN1CCC(c2c[nH]c3ccc(O)cc23)CC1 | 0.849 | 1.09 | 0.989 | 0.813
8 | CC(N)Cc1c[nH]c2ccc(OCc3cccs3)cc12 (centres undefined) | 0.738 | 0.669 | 0.925 | 0.524
9 | C[C@]12CC[C@H](O)CC1=CC[C@@H]1[C@@H]2CC[C@]2(C)C(=O)CC[C@@H]12 | 1.22 | 0.919 | 0.775 | 0.905
10 | O=C(CCCN1CCC2(CC1)C(=O)NCN2c1ccccc1)c1ccc(F)cc1 | 0.762 | 0.806 | 0.91 | 0.556
11 | NCCc1c[nH]c2ccc(O)cc12 | 1.03 and 0.7 | 0.895 and 0.996 | 0.443 and 0.993 | 0.717 and 0.742
12 | Clc1cccc(SC2CCNCC2)n1 | 0.823 | 1.02 | 0.843 | 0.481
13 | COC(=O)[C@@H]1C[C@H](OC(C)=O)C(=O)[C@H]2[C@@]1(C)CC[C@H]1C(=O)O[C@H](c3ccoc3)C[C@]21C | 1.06 | 0.96 | 0.766 | 0.656
14 | CN1[C@@H]2CC[C@H]1C[C@@H](OC(=O)C(CO)c1ccccc1)C2 (some centres undefined) | 0.98 | 1.12 | 0.944 | 0.608
15 | COC(=O)N1CCN(C(=O)Cc2ccc(Cl)c(Cl)c2)C(CN2CCCC2)C1 (centres undefined) | 1.02 | 1.17 | 0.863 | 0.755
16 | Oc1ccc2c3c1O[C@H]1c4c(c5ccccc5n4Cc4ccccc4)C[C@@]4(O)[C@@H](C2)N(CC2CC2)CC[C@]314 | 0.911 | 1.31 | 0.794 | 0.928
